Measurements published in PMC7762755.
No constants are given. Whether binding was seen depends on the method and setting. In cells and extracts the contact can be indirect. Some binding calls cover weakened binding; strength is not graded here.

Chains of the proteins cited; added tags and fusions are not shown. Lines headed by an entry give the natural chain unless they say otherwise; changes in a name come on top. A line that says so, or that is headed by a name, gives the form on record, which may keep a tag or linker.
UniProt P42224: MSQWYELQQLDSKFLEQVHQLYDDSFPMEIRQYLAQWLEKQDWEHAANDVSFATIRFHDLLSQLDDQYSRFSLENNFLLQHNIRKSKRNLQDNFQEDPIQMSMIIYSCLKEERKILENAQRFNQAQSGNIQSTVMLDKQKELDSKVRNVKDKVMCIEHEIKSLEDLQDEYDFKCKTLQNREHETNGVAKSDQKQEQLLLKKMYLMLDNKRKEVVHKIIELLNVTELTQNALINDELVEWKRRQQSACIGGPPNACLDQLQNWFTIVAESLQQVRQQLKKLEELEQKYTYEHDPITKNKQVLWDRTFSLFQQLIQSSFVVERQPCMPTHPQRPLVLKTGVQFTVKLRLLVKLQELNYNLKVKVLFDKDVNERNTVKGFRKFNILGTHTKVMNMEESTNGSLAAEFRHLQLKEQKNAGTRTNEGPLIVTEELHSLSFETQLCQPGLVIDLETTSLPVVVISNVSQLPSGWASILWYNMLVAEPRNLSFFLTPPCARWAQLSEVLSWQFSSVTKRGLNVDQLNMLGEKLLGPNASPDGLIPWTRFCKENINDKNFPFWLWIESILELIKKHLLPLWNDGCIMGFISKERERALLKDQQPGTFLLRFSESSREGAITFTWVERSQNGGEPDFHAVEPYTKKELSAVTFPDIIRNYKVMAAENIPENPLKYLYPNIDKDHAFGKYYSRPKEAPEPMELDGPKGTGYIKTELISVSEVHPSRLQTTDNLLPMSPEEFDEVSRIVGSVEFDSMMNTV
human P301L mutant tau (P301L-hTau), expressed from plasmid in HEK293 cells (P10636-8, form named): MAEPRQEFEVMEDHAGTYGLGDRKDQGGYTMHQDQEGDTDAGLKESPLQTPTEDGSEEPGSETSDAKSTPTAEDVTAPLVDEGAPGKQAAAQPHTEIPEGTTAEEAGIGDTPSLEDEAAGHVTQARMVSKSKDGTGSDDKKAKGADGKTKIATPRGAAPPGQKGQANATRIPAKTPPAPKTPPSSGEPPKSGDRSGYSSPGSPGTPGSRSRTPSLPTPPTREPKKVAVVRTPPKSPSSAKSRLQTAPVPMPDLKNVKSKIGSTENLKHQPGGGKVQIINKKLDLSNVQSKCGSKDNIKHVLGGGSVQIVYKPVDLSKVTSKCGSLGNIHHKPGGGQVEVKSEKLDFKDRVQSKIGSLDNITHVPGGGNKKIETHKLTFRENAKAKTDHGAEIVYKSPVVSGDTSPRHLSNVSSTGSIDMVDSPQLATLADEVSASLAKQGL

Molecular target: Signal Transduction and Activator of Transcription-1 (STAT1) (human (endogenous in HEK293)) (UniProt P42224)
Test: co-IP; HEK293WT cells transfected with P301L-hTau

binding: binds
Substance: human P301L mutant tau (P301L-hTau), expressed from plasmid in HEK293 cells (from UniProt P10636-8 1-441)
